The target in this experiment is T1, GST-PPP6C protein (UniProt O00743).
T1 sequence: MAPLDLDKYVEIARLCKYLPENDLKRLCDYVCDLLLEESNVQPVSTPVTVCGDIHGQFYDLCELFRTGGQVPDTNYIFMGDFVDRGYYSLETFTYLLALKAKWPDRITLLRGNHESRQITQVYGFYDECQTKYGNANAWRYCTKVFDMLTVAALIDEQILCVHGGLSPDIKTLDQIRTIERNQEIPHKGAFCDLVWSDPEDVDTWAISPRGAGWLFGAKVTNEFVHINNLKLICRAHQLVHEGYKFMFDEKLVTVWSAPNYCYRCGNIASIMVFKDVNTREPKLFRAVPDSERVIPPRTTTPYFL
The experiment in a line: pull-down; 3 μg of each recombinant protein mixed, 37 °C 1 h in 25 mM Tris pH 8.0, 150 mM NaCl, 2 mM DTT, 1 mg/ml BSA; GST-PPP6C captured with anti-PP6C antibody and Protein G agarose beads, Western blotting; both purified. On the technique in general: In western blotting, separated proteins are transferred to a membrane and probed.

No constants are given. Whether binding was seen depends on the method and setting. Some entries that bind do so weakly or less than the wild type. Sequences can lack the tags named with a protein.

B1: recombinant Myc-PPP6R3 protein (protein, UniProt Q5H9R7 1-873)
chain: MFWKFDLHSSSHIDTLLEREDVTLKELMDEEDVLQECKAQNRKLIEFLLKAECLEDLVSFIIEEPPQDMDEKIRYKYPNISCELLTSDVSQMNDRLGEDESLLMKLYSFLLNDSPLNPLLASFFSKVLSILISRKPEQIVDFLKKKHDFVDLIIKHIGTSAIMDLLLRLLTCIEPPQPRQDVLNWLNEEKIIQRLVEIVHPSQEEDRHSNASQSLCEIVRLSRDQMLQIQNSTEPDPLLATLEKQEIIEQLLSNIFHKEKNESAIVSAIQILLTLLETRRPTFEGHIEICPPGMSHSACSVNKSVLEAIRGRLGSFHELLLEPPKKSVMKTTWGVLDPPVGNTRLNVIRLISSLLQTNTSSINGDLMELNSIGVILNMFFKYTWNNFLHTQVEICIALILASPFENTENATITDQDSTGDNLLLKHLFQKCQLIERILEAWEMNEKKQAEGGRRHGYMGHLTRIANCIVHSTDKGPNSALVQQLIKDLPDEVRERWETFCTSSLGETNKRNTVDLVTTCHIHSSSDDEIDFKETGFSQDSSLQQAFSDYQMQQMTSNFIDQFGFNDEKFADQDDIGNVSFDRVSDINFTLNTNESGNIALFEACCKERIQQFDDGGSDEEDIWEEKHIAFTPESQRRSSSGSTDSEESTDSEEEDGAKQDLFEPSSANTEDKMEVDLSEPPNWSANFDVPMETTHGAPLDSVGSDVWSTEEPMPTKETGWASFSEFTSSLSTKDSLRSNSPVEMETSTEPMDPLTPSAAALAVQPEAAGSVAMEASSDGEEDAESTDKVTETVMNGGMKETLSLTVDAKTETAVFKSEEGKLSTSQDAACKDAEECPETAEAKCAAPRPPSSSPEQRTGQPSAPGDTSVNGPV
For the molecule B1, the binding entry is “binds”.

The values are drawn from PMC10011557.
